The target of this experiment is sLET-23^dim-arm (LET-23 extracellular region with six dimerization arm mutations in domain II) (C. elegans) (UniProt P24348). The experiment can be described thus: AUC; sedimentation equilibrium, without ligand; 1 to 8 μM receptor, 10 mM Hepes pH 8.0, 150 mM NaCl, 20 °C, three speeds; dimer to monomers; both purified.

Here are results for one molecule from publication PMC4465127.

No constants are given. Whether binding was seen depends on the method and setting.

B1: sLET-23^dim-arm (LET-23 extracellular region with six dimerization arm mutations in domain II) (domain or fragment, UniProt P24348 21-819)
chain: FGNSNAQLWKRCVSPQDCLCSGTTNGISRYGTGNILEDLETMYRGCRRVYGNLEITWIEANEIKKWRESTNSTVDPKNEDSPLKSINFFDNLEEIRGSLIIYRANIQKISFPRLRVIYGDEVFHDNALYIHKNDKVHEVVMRELRVIRNGSVTIQDNPKMCYIGDKIDWKELLYDPDVQKVETTNSHQHCYQNGKSMAKCHESCNDKCWGSGDNDCQRVYRSVCPKSCSQCFYSNSTSSYECCDSACLGGCTGHGPKNCIACSKYELDGICIETCPSRKIDAHDTEADVFNPDGRYQNGNHCVKECPPELLIENDVCVRHCSDGHHYDATKDVRECEKCRSSSCPKICTVDGHLTNETLKNLEGCEQIDGHLIIEHAFTYEQLKVLETVKIVSEYITIVQQNFYDLKFLKNLQIIEGRKLHNVRWALAIYQCDDLEELSLNSLKLIKTGAVLIMKNHRLCYVSKIDWSSIITSKGKDNKPSLAIAENRDSKLCETEQRVCDKNCNKRGCWGKEPEDCLECKTWKSVGTCVEKCDTKGFLRNQTSMKCERCSPECETCNGLGELDCLTCRHKTLYNSDFGNRMECVHDCPVSHFPTQKNVCEKCHPTCYDNGCTGPDSNLGYGGCKQCKYAVKYENDTIFCLQSSGMNNVCVENDLPNYYISTYDTEGVIETHCEKCSISCKTCSSAGRNVVQNKCVCKHVEYQPNPSERICMDQCPVNSFMVPDTNNTVCKKCHHECDQNYHCANGQSTGCQKCKNFTVFKGDIAQCVSECPKNLPFSNPANGECLDYDIASRQRKTRM
In the case of B1, the binding entry is “no binding (tested: 1 to 8 μM)”.
